Assay results: the supplement of paper PMC3334620
The full ranking holds about 33,000 sequences; the median of “E-score (-0.5 to 0.5)” is about -0.0034, and the highest 2% start at about 0.25. The list shows a part of the results.

molecular target: T1, Yap3 (UniProt P38749); assay: PBM E-score (8-mer binding enrichment) (E-score (-0.5 to 0.5)); higher = stronger / more preferred TF binding; settings: protein concentration: 100 nM; construct: GST-full length
T1 sequence: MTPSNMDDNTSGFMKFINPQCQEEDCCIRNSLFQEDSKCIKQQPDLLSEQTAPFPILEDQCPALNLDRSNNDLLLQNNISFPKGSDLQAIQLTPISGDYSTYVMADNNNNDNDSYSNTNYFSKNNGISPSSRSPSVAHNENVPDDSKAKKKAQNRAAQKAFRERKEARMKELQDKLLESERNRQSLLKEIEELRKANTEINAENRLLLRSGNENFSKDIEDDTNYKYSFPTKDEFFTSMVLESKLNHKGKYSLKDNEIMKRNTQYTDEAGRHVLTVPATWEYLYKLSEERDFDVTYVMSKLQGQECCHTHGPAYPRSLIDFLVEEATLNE
Method in brief: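 Each ungapped eight-base word and its reverse complement, pooled, received an E-score from the Universal PBM Analysis Suite. Underlying scans, normalised with masliner, recorded fluorescent anti-GST bound to GST-tagged yeast transcription factors. These were applied at about 100-200 nM to universal all-10-mer Agilent arrays double-stranded by primer extension.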

Sequence	PBM E-score
GCTAGCGA	0.0245
ACGGAGAC	0.0369
GATTAACA	0.232
ACAAAGCG	0.162
ATGGATGG	-0.0764
CGGCTCGA	-0.124
TCTAGTAA	0.0732
CATCCTGG	0.0541
ATTACCGG	-0.0144
CGTAGGAA	0.00989
ACAGCCGT	-0.0768
TCATTAGA	0.0685
AGACCTGG	-0.0312
ATTACTAC	0.0177
TCGCGCCA	-0.0451
ATTAGCAG	0.112
CCATTGGC	-0.163
AGTTTCGA	-0.0266
GGTATTTA	0.104
AAAAGAAG	0.0691
GAACTTGA	0.0484
ACGGACCG	-0.298
ATGCTTTC	0.17
CCGGAGAG	-0.292
CTAACCGC	-0.128

Rewritten as labelled records: part of the list above.
CGGCTCGA
  PBM E-score: -0.124
ATTACCGG
  PBM E-score: -0.0144
AGTTTCGA
  PBM E-score: -0.0266
GGTATTTA
  PBM E-score: 0.104

Further results follow.

Sequence	PBM E-score
AGGTGGTG	-0.105
CTATAGAA	-0.00393
GATGATCC	-0.0664
ACTCGGGC	-0.115
ATGATGTA	0.211
AGCACATA	0.0101
ATTTCCCC	0.106
GATGCACA	-0.173
GTTGTCGA	-0.0764
ACTAACCG	0.055
ATAAGAAA	0.207
ACCCGAGT	-0.0562
AACTTTCC	0.00171
TACCTACA	0.0898
AACGAGAA	0.183
AACGAAAA	0.181
CTTACGTA	0.349
CTAACTCC	-0.17
TTATCGAA	0.109
ATCGTAGA	-0.117
TAGTCGGA	0.00489
ACGCCAAG	-0.351
CCGGGCTC	-0.256
AGGGTCGC	-0.186
GAACGAGC	0.0184

Sequence	PBM E-score
AATAAGCA	0.148
AAGAAGCG	-0.127
CGATTCAC	-0.025
ATACGCAA	0.153
ACTGGGGA	-0.344
AACTGGAC	0.0415
AGTCTTGA	-0.142
AATTATCA	0.288
AGGACACG	-0.0469
ACCGCCTG	-0.21
ATCTACCA	0.196
GAGGACTA	-0.0501
GAGTGACA	0.0844
CTAACGTC	0.0547
CGCTGGAG	-0.1
CACGAACG	-0.0181
ATGCCTAA	0.00148
GCGGGAAC	-0.0424
AACCTCCA	-0.257
GACTGCGA	-0.176
CCCACCAC	-0.091
GATGGTGA	-0.0452
ATTGCAAC	0.107
CCAACGCC	-0.104
AAACCGGG	-0.0388

Sequence	PBM E-score
TAGATAGA	0.143
TCATTCGA	0.195
CAAGCTGG	-0.192
AGAAAGAA	0.0357
AGGTGCGA	-0.233
GCTGCTGA	-0.00022
AACCCCCG	-0.416
AACCCCAG	-0.164
AACTGCGA	-0.0434
ATTTTTCC	0.0331
CTGGAAGA	0.0574
GCAGCGTA	-0.113
AAAGGCCT	-0.143
AAAGAACC	0.0747
GCTCTCCA	-0.215
CTGACCGA	-0.0675
AACTTTCA	0.0342
AGATCGGC	-0.0596
AGGGATAG	-0.0948
CTAGTTCA	0.1
ATTTAGAC	0.106
GCGCGTAA	0.23
TACTGATA	0.0914
AGTCACAC	0.0306
CTTTTTGC	0.038

Sequence	PBM E-score
AGATGTAG	-0.0953
TAGCTGAA	0.0584
AGCTTAAG	0.0852
CTTTGCTC	-0.0473
AAAGAGCC	-0.115
ATGGCCTG	-0.0904
GTCTGCAC	-0.064
CGATCAAC	-0.14
GCTATATA	0.101
ACGGTCCA	-0.143
CCCCGCTC	-0.294
ATGAGATG	0.124
TACACTAA	0.077
ACCGCCCC	-0.091
ACATCACG	0.00575
GAAACCCC	-0.174
AGGGCTGC	-0.241
CATCAGAA	0.146
GGACACGA	-0.0635
ATTTCGGA	0.189
GTGTGTCA	0.19
GGGTTTGA	0.00605
AACTAGGC	-0.0303
CGCTTCCG	-0.104
AGTTCCCG	-0.0921

Sequence	PBM E-score
AGCAAGAA	0.0883
GAGCCAAC	-0.14
GAGTTGAC	-0.0209
CAGCGATG	-0.0121
ACCGGACT	-0.0832
CAGTCCTA	-0.0911
CGTGGTCA	-0.112
ATAAAATG	0.276
ACTCTGGC	-0.15
AATATTAC	0.31
GGGCGCAC	-0.228
CTCCCTAC	-0.192
CAGTATCC	0.14
CGGATAAC	0.106
GAACCGAC	-0.0587
AAGGACCA	-0.138
ATATCGCA	-0.155
AGCGGGAT	-0.0384
ATCATCGG	-0.125
ACCCCCAC	-0.376
TAAGGGGA	-0.134
ATAACAAT	0.137
ATTGACGC	0.0954
ACTTCGAA	0.0916
GCGCGTTA	0.121

Sequence	PBM E-score
AGCGTCAA	-0.0742
AGAGTCAT	-0.203
ATGGTCGA	-0.0135
AGGATGAC	0.0263
ACACGTGT	0.0329
ACAGATGG	0.00201
CGGTATTA	0.13
CCGCCAGC	-0.196
GGAAGAGA	-0.0406
GAACGTCA	-0.114
CTGTTGGA	0.119
AGACAGAA	0.0388
CCGGGAGG	-0.313
CGAAATGA	0.136
CAGAAGGC	-0.157
ATTGAGTA	0.238
ATTTCATG	-0.0106
GATATGGC	-0.0107
GGAGACTA	-0.113
CTACCAAG	-0.126
AGCGTACT	0.0579
AAGGCCAG	-0.142

Random excerpt: four entries already listed
Sequence	PBM E-score
AAGGCCAG	-0.142
AGAGTCAT	-0.203
CGGTATTA	0.13
AGCGTACT	0.0579
